The list is a part of this screen's results and no random one: it gathers tests that were run many times, whatever their T/C, doses with no T/C, and many T/C values between a quarter and a half above the control. Further doses and runs are listed elsewhere. T/C is the treated group as % of the vehicle group. Some entries give survivors of the animals treated and no T/C: the source files T/C as zero there, which appears to mark a toxic dose or a test without result, not a measured value. Some doses without a T/C left all or most animals alive at the check, yet need not have been tolerated: survival well below the control is almost never listed, so the zero probably covers shortened survival too. Survivors were counted at the toxicity check, usually on the fifth day, unless a day is given; later deaths do not show. Schedule codes are those of the source, read here as Q, the interval in days (D) or hours (H), X, the number of doses. Some doses were run more than once; the results are listed from low to high. For survival time, the PubChem record calls one and a half times the control and up active, and a quarter to a half above the control has no call in these data; cut-offs in other NCI protocols can differ. Additions like (4×) give the number of equal values in this list. Some T/C values are followed by the survivors on the day toxicity was checked, most often the fifth; without a count, all were alive then.
System: Lymphoma 4 ip in BDF1 mice, median survival
Test: NCI In Vivo Anticancer Drug Screen. Data for tumor model Lymphoma 4 (intraperitoneal) in B6D2F1 (BDF1) mice
Settings: T/C endpoint: median survival time, higher T/C = longer survival
Protocol: The antitumor activity of compounds was measured in mice bearing transplantable tumors. Survival or tumor size were measured and the results are expressed as the measurement made in the treated group (T) divided by the measurement made in the vehicle treated control group (C). The tumor model used in this assay is Lymphoma 4 (intraperitoneal) in B6D2F1 (BDF1) mice

[1] = dose: 2.5 mg/kg/injection, schedule: Q01DX010 (ip), vehicle: saline
[2] = dose: 5.0 mg/kg/injection, schedule: Q01DX010 (ip), vehicle: saline
[3] = dose: 1.25 mg/kg/injection, schedule: Q01DX010 (ip), vehicle: saline
[4] = dose: 10.0 mg/kg/injection, schedule: Q01DX010 (ip), vehicle: saline
[5] = dose: 120.0 mg/kg/injection, schedule: Q01DX010 (ip), vehicle: saline
[6] = dose: 100.0 mg/kg/injection, schedule: Q01DX010 (ip), vehicle: saline

With `S=P(N1CC1)(N1CC1)N1CC1` the T/C (dose: 3.0 mg/kg/injection, schedule: Q01DX010 (ip), vehicle: saline) was 142 and 143 % of control and the survivor count (dose: 6.0 mg/kg/injection, schedule: Q01DX010 (ip), vehicle: saline) was 6 of 6.

With `Oc1cc(CN(CCCl)CCCl)c(O)cc1CN(CCCl)CCCl` the T/C [1] was 130 [4 of 6 alive] and 140 % of control [5 of 6 alive] and the survivor count [2] was 4 of 6 and 6 of 6.

For `CC(=O)NC1=C(N2CC2)C(=O)C(NC(C)=O)=C(N2CC2)C1=O`, the T/C (dose: 0.5 mg/kg/injection, schedule: Q01DX010 (ip), vehicle: saline) was 142 % of control.

`O=C(O)c1[nH]c(=O)[nH]c(=O)c1F` was tested, and the T/C [3] was 128 % of control, the T/C [1] was 126 and 128 % of control and the survivor count [4] was 6 of 6.

For `Nc1nc2n[nH]nc2c(=O)[nH]1`, the T/C (dose: 25.0 mg/kg/injection, schedule: Q01DX010 (ip), vehicle: alkali diluted with saline) was 132 % of control, the T/C (dose: 50.0 mg/kg/injection, schedule: Q01DX010 (ip), vehicle: alkali diluted with saline) was 125 % of control and the T/C (dose: 100.0 mg/kg/injection, schedule: Q01DX010 (ip), vehicle: alkali diluted with saline) was 142 and 143 % of control. The T/C (dose: 200.0 mg/kg/injection, schedule: Q01DX010 (ip), vehicle: alkali diluted with saline) was 132 % of control.

`N#CCSc1ncnc2nc[nH]c12` was tested, and the survivor count [5] was 6 of 6.

`CN(C)/N=N/c1nc[nH]c1C(N)=O` was tested, and the T/C [6] was 133 % of control.

With `COc1cc(-c2ccc(Nc3ccccc3C(=O)O)c(OC)c2)ccc1Nc1ccccc1C(=O)O` the T/C [6] was 126 % of control.

For `CN(C)c1ccc(/C=C/c2ccnc3ccccc23)cc1`, the T/C (dose: 32.0 mg/kg/injection, schedule: Q01DX010 (ip), vehicle: saline) was 89, 90 [5 of 6 alive], 92, 100 % of control, the survivor count (dose: 64.0 mg/kg/injection, schedule: Q01DX010 (ip), vehicle: saline) was 6 of 6 and the survivor count (dose: 128.0 mg/kg/injection, schedule: Q01DX010 (ip), vehicle: saline) was 6 of 6. The survivor count (dose: 256.0 mg/kg/injection, schedule: Q01DX010 (ip), vehicle: saline) was 0 of 6 and 3 of 6.

For `CC[n+]1c(-c2ccccc2)c2cc(N)ccc2c2ccc(N)cc21`, the T/C [3] was 130 % of control, the T/C [1] was 146 % of control and the T/C [2] was 146 % of control.

`O=C(O)CCCc1ccc(N(CCCl)CCCl)cc1` was tested, and the survivor count (dose: 12.5 mg/kg/injection, schedule: Q01DX010 (ip), vehicle: saline) was 6 of 6 and the survivor count (dose: 25.0 mg/kg/injection, schedule: Q01DX010 (ip), vehicle: saline) was 0 of 6 and 4 of 6.

`C[C@]12C=CC(=O)C=C1CC[C@@H]1[C@@H]2[C@@H](O)C[C@@]2(C)[C@H]1CC[C@]2(O)C(=O)CO` was tested, and the T/C (dose: 12.5 mg/kg/injection, schedule: Q01DX010 (sc), vehicle: steroid suspending solution) was 125 % of control, the T/C (dose: 25.0 mg/kg/injection, schedule: Q01DX010 (sc), vehicle: steroid suspending solution) was 125 % of control and the T/C (dose: 50.0 mg/kg/injection, schedule: Q01DX010 (sc), vehicle: steroid suspending solution) was 125 % of control. The T/C (dose: 100.0 mg/kg/injection, schedule: Q01DX010 (sc), vehicle: steroid suspending solution) was 128 % of control.

For `S=P(N1CCOCC1)(N1CC1)N1CC1`, the T/C [1] was 100 and 107 % of control, the survivor count [1] was 6 of 6 and the T/C [2] was 103 and 110 % of control. The survivor count [2] was 6 of 6, the survivor count [4] was 6 of 6 and the survivor count (dose: 20.0 mg/kg/injection, schedule: Q01DX010 (ip), vehicle: saline) was 5 of 6 and 6 of 6.

In the case of `Nc1nc(F)nc2c1ncn2C1OC(CO)C(O)C1O` (configuration not stated), the survivor count (dose: 2.0 mg/kg/injection, schedule: Q01DX010 (ip), vehicle: saline) is reported as 7 of 7.

With `CN(C)c1ccc(Nc2c3ccccc3nc3ccccc23)cc1` the T/C [5] was 142 % of control (2×) and the survivor count (dose: 180.0 mg/kg/injection, schedule: Q01DX010 (ip), vehicle: saline) was 5 of 6.

In the case of `CC(=O)Nc1ccc2nc3ccc(NC(C)=O)cc3[n+](-c3ccccc3)c2c1`, the T/C [6] is reported as 129 % of control and the T/C (dose: 200.0 mg/kg/injection, schedule: Q01DX010 (ip), vehicle: saline) is reported as 129 % of control.

`Cc1cc(N(CCCl)CCCl)ccc1N=Nc1ccccc1C(=O)O` was tested, and the T/C [2] was 126 and 135 % of control, the T/C [4] was 146 % of control and the survivor count (dose: 40.0 mg/kg/injection, schedule: Q01DX010 (ip), vehicle: saline) was 5 of 6 and 6 of 6.

From PubChem BioAssay AID240 (DTP/NCI, 2004)
